The structures appear in SMILES notation.

The subject of this data set is mice of Kunming breed. Kind of data set: Catalepsy assay in mice. It is filed as in vivo. Particulars: ratio of ED50 values, po. The protocol: Healthy mice of Kunming breed (with half male and half female, (22±2) g) were provided by Qinglongshan Animal Cultivation Center, Nanjing.
Instruments: self-made bar-grabbing apparatus: stainless steel bar in mice box, which was 0.3 cm in diameter and […].
Corresponding solvent double-distilled water was administered intragastrically to the negative control group and the model group, corresponding positive drugs were administered intragastrically to the positive drug groups (a small amount of acetic acid was first added and then double-distilled water was added when dissolving), and corresponding dosages of compounds were administered intragastrically to the compound groups for each dosage, with the volume for intragastric administration as 0.1 ml/10 g. At 30 min, 60 min, 90 min after the intragastric administration, the two forepaws of the mice were gently placed on the bars (which were 20 cm in length, 0.3 cm in diameter, and 5.5 cm above the bench), and the hindpaws of the animals were placed on the bottom of the box. The durations of the mice to maintain the posture with the two forepaws on the bars were recorded, and 30 s of spasticity without moving was considered as the positive response. In the case the forepaws of the mice were not put down persistently, the observation was terminated at 60 s. The numbers of animals with positive response in each of the compound dosage groups were counted.
As to `O=C(CCCN1CCC(O)(c2ccc(Cl)cc2)CC1)c1ccc(F)cc1` [haloperidol, reference compound], the Catalepsy/Apomorphine induced clambering came to 4.89 and the “Catalepsy/MK-801 induced high activity” value was determined as 4.40.

`O=C1Cc2cc(CCN3CCN(c4nsc5ccccc45)CC3)c(Cl)cc2N1` [ziprasidone, reference compound]: the Catalepsy/Apomorphine induced clambering is 82.16 and the “Catalepsy/MK-801 induced high activity” value stood at 54.29.

Turning to `O=C(CCN1CCC(c2noc3cc(F)ccc23)CC1)c1cc2c3c(c1)CCC(=O)N3CCC2` [Compound 2], the Catalepsy/Apomorphine induced clambering was found to be 37 and the “Catalepsy/MK-801 induced high activity” value was found to be 19.

With `O=C1CCc2cc(CCCCN3CCC(c4noc5cc(F)ccc45)CC3)cc3c2N1CCC3` [Compound 7], the Catalepsy/Apomorphine induced clambering stood at 54 and the “Catalepsy/MK-801 induced high activity” value is on record as 26.

Take `O=C1CCc2ccc(OCCCCN3CCN(c4cccc(Cl)c4Cl)CC3)cc2N1` [aripiprazole, reference compound]: the Catalepsy/Apomorphine induced clambering came out at 11.43 and the “Catalepsy/MK-801 induced high activity” value amounted to 20.00.

Regarding `OCCOCCN1CCN(C2=Nc3ccccc3Sc3ccccc32)CC1` [quetiapine, reference compound], the Catalepsy/Apomorphine induced clambering was 396.04 and the “Catalepsy/MK-801 induced high activity” value is recorded as 79.21.

Consider `O=C(CCCN1CCC(c2noc3cc(F)ccc23)CC1)c1cc2c3c(c1)CCC(=O)N3CCC2` [Compound 5], for which the Catalepsy/Apomorphine induced clambering is on record as 152 and the “Catalepsy/MK-801 induced high activity” value turned out to be 90.90.

For the molecule `O=C(CCN1CCC(c2noc3cc(F)ccc23)CC1)c1cc2c3c(c1)CCN3C(=O)CC2` [Compound 12], the Catalepsy/Apomorphine induced clambering was 111 and the “Catalepsy/MK-801 induced high activity” value was 140.

For the molecule `O=C(CCCN1CCC(c2noc3cc(F)ccc23)CC1)c1cc2c3c(c1)CCN3C(=O)CC2` [Compound 15], the Catalepsy/Apomorphine induced clambering came out at 416 and the “Catalepsy/MK-801 induced high activity” value worked out at 238.

(Values after patent US10517862B2, “Fused heterocyclic compound derivative and application thereof” (NHWA PHARMA. CORPORATION, priority 2015, dated 2019).)
